Experimental data: PubChem BioAssay AID504791 (Drosophila RNAi Screening Center, 2011)
The screen tested about 23,000 reagents; this is a random part of those that have a named target and a result. In the full data, 199 (0.86%) got an active call. 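Plate-scaled ratios behind the calls are not deposited; printed light signals are raw; many rows marked increased or decreased are still called inactive.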 A plus sign joins genes that one reagent is predicted to hit.

Purpose: 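Genes whose knock-down strengthens or weakens small-RNA reporter silencing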 (primary screen)
Cells: Drosophila S2-derived reporter cells
Reagents: long dsRNA against Drosophila genes, about 150-250 ng dsRNA per well (siRNA assay); about 80-120 ng (miRNA assay)
Duration: about 5 days (siRNA assay); about 4 days (miRNA assay)
Challenge: copper sulfate induction of reporters: 25 µM (siRNA assay); 200 mM stated (miRNA assay), 1-2 days before reading
Read-out: 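Per-well ratio of Renilla over firefly light, expressed relative to that plate's average ratio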
Direction: siRNA reporter hit score: higher = 3 marks a strong hit with raised ratio; -3 a strong hit with lowered ratio
Rule for the call: 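a well was a first-pass pick when its plate-scaled ratio rose above 1.5 (siRNA assay) or 1.6 (miRNA assay), or dropped below 0.6; a gene counted only if two separate dsRNAs agreed on retest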

| target | dsRNA | siRNA reporter hit score | stable siRNA reporter change | stable assay Renilla, run 1 (luminescence) | stable assay firefly, run 1 (luminescence) | Call |
| --- | --- | --- | --- | --- | --- | --- |
| CG16727 | DRSC15139 | – | – | 6799 | 2.63e5 | inactive |
| CG13511 | DRSC04153 | – | – | 6599 | 4.78e5 | inactive |
| AdipoR (Adiponectin receptor) | DRSC15767 | – | – | 10025 | 3.34e5 | inactive |
| CG15111 | DRSC21467 | – | – | 10172 | 6.24e5 | inactive |
| Slc45-1 | DRSC10427 | – | – | 6528 | 4.30e5 | inactive |
| pcm (pacman) | DRSC20361 | – | – | 8294 | 6.00e5 | inactive |
| ebi | DRSC00816 | – | – | 9410 | 3.44e5 | inactive |
| veli | DRSC16276 | – | – | 5230 | 3.31e5 | inactive |
| CG13460 | DRSC10007 | – | – | 7746 | 3.38e5 | inactive |
| CG11980 | DRSC14456 | – | – | 8912 | 5.11e5 | inactive |
| CG31870 | DRSC21681 | – | – | 9623 | 6.05e5 | inactive |
| CG44085 | DRSC02922 | – | reporter ratio raised past the hit cutoff | 6235 | 1.92e5 | inactive |
| CG44085 | DRSC23040 | – | – | 6699 | 3.98e5 | inactive |
| St4 (Sulfotransferase 4) | DRSC07008 | – | – | 5507 | 2.84e5 | inactive |
| CG10098 | DRSC12509 | – | – | 7859 | 4.37e5 | inactive |
| dib (disembodied) | DRSC08711 | – | – | 7978 | 4.38e5 | inactive |
| Snap29 (Synaptosomal-associated protein 29kDa) | DRSC04721 | – | – | 5962 | 3.64e5 | inactive |
| CG17047 | DRSC06648 | – | – | 6495 | 3.55e5 | inactive |
| Tps1 (Trehalose-6-phosphate synthase 1) | DRSC00269 | – | – | 13435 | 8.05e5 | inactive |
| ND-13A (NADH dehydrogenase (ubiquinone) 13 kDa A subunit) | DRSC03110 | – | – | 7656 | 4.31e5 | inactive |
| Kua | DRSC02100 | – | – | 6911 | 3.86e5 | inactive |
| SCAR | DRSC03426 | – | – | 6314 | 3.04e5 | inactive |
| CG11588 | DRSC09145 | – | – | 4839 | 3.03e5 | inactive |
| CG11588 | DRSC09846 | – | – | 7364 | 5.99e5 | inactive |
| RPA1 (Replication protein A1) | DRSC16830 | – | – | 9922 | 6.21e5 | inactive |
| jb (jean-baptiste) | DRSC20531 | – | – | 5596 | 3.41e5 | inactive |
| Hrb27C (Heterogeneous nuclear ribonucleoprotein at 27C) | DRSC03347 | – | – | 12672 | 4.75e5 | inactive |
| CG7536 | DRSC20050 | – | – | 7901 | 5.13e5 | inactive |

Part of the list above, showing only “stable assay Renilla, run 1 (luminescence)”.
CG15111 [DRSC21467]	10172
Slc45-1 [DRSC10427]	6528
pcm (pacman) [DRSC20361]	8294
ebi [DRSC00816]	9410
veli [DRSC16276]	5230
CG13460 [DRSC10007]	7746
CG11980 [DRSC14456]	8912
CG31870 [DRSC21681]	9623

The results go on:
| target | dsRNA | siRNA reporter hit score | stable siRNA reporter change | stable assay Renilla, run 1 (luminescence) | stable assay firefly, run 1 (luminescence) | Call |
| --- | --- | --- | --- | --- | --- | --- |
| CG17217 | DRSC02592 | – | – | 7982 | 3.92e5 | inactive |
| Yp2 (Yolk protein 2) | DRSC18732 | – | – | 8028 | 3.87e5 | inactive |
| puf (puffyeye) | DRSC15875 | – | – | 4983 | 2.43e5 | inactive |
| puf (puffyeye) | DRSC23167 | – | – | 5226 | 4.47e5 | inactive |
| Bmcp | DRSC10808 | – | – | 7868 | 4.08e5 | inactive |
| lncRNA:sphinx + ATPsynF | DRSC17191 | – | – | 6943 | 4.47e5 | inactive |
| CG6654 | DRSC16084 | – | – | 8699 | 3.88e5 | inactive |
| CG4950 | DRSC10463 | – | – | 7436 | 3.84e5 | inactive |
| CG4537 | DRSC02756 | – | – | 6982 | 4.15e5 | inactive |
| CG3092 | DRSC04336 | – | – | 47705 | 8.20e5 | inactive |
| Alg12 (Alg12 alpha-1,6-mannosyltransferase) | DRSC16416 | – | – | 6659 | 4.14e5 | inactive |
| CG42538 | DRSC09412 | – | – | 6235 | 3.91e5 | inactive |
| CR30068 (retired record) | DRSC05477 | – | – | 6507 | 4.53e5 | inactive |
| CG12984 | DRSC11693 | – | – | 6507 | 3.31e5 | inactive |
| Spn47C (Serpin 47C) | DRSC07030 | – | – | 8180 | 4.84e5 | inactive |
| Afg3l2 (AFG3 like matrix AAA peptidase subunit 2) | DRSC10657 | – | – | 7905 | 3.45e5 | inactive |
| TrpRS-m (Tryptophanyl-tRNA synthetase, mitochondrial) | DRSC10848 | – | – | 8364 | 2.84e5 | inactive |
| Cox10 (Cytochrome c oxidase assembly factor 10) | DRSC02804 | – | – | 1.50e5 | 3.56e5 | inactive |
| Uba4 (Ubiquitin-like activating enzyme 4) | DRSC02194 | – | – | 6876 | 3.58e5 | inactive |
| mRpS22 (mitochondrial ribosomal protein S22) | DRSC14488 | – | reporter ratio lowered past the hit cutoff | 4567 | 4.47e5 | inactive |
| Gr98d (Gustatory receptor 98d) | DRSC14571 | – | – | 5779 | 4.49e5 | inactive |
| CG31533 | DRSC13018 | – | – | 3780 | 2.59e5 | inactive |
| CG12224 | DRSC14480 | – | – | 7114 | 4.12e5 | inactive |
| CG4882 | DRSC04495 | – | – | 5671 | 4.19e5 | inactive |
| CG30471 | DRSC07096 | – | – | 9359 | 4.42e5 | inactive |
| FAM21 (Family with sequence similarity 21) | DRSC06623 | – | – | 7266 | 3.08e5 | inactive |
| CG14244 | DRSC14739 | – | – | 7138 | 5.19e5 | inactive |
| CG8298 | DRSC07138 | – | – | 5036 | 2.87e5 | inactive |
| CG15136 | DRSC02436 | – | – | 7491 | 4.58e5 | inactive |
| CG18540 | DRSC06767 | – | – | 5247 | 3.16e5 | inactive |
| CG7737 | DRSC07033 | – | – | 8607 | 5.50e5 | inactive |
| CG7509 | DRSC08596 | – | – | 7175 | 3.68e5 | inactive |
| moi + Tgs1 | DRSC16371 | – | – | 7378 | 3.29e5 | inactive |
| RpS14b (Ribosomal protein S14b) | DRSC18711 | 3 | – | 6314 | 5.35e5 | inactive |
| CG10062 | DRSC05960 | – | – | 7711 | 3.39e5 | inactive |
| CG10062 | DRSC22535 | – | – | 4535 | 4.05e5 | inactive |
| Plp (Pericentrin-like protein) | DRSC10006 | – | – | 7850 | 4.22e5 | inactive |
| Plp (Pericentrin-like protein) | DRSC10333 | – | – | 8340 | 3.80e5 | inactive |
| Plp (Pericentrin-like protein) | DRSC10700 | – | – | 9132 | 3.51e5 | inactive |
| CG2964 | DRSC00554 | – | – | 7075 | 4.59e5 | inactive |
| CAH9 (Carbonic anhydrase 9) | DRSC15963 | – | – | 5571 | 3.81e5 | inactive |
| CG14961 | DRSC08420 | – | – | 5824 | 3.15e5 | inactive |
| Arv1 (ACAT-related protein required for viability 1) | DRSC11491 | – | – | 5443 | 3.31e5 | inactive |
| CG12691 | DRSC17880 | – | – | 4291 | 2.80e5 | inactive |
| eff (effete) | DRSC16940 | – | – | 6235 | 5.44e5 | inactive |
| CG33172 | DRSC21793 | – | – | 7622 | 4.33e5 | inactive |
| CG18542 + CG32939 | DRSC15342 | – | – | 8369 | 3.83e5 | inactive |
| Lipt1 (Lipoyltransferase 1) | DRSC05600 | – | – | 5546 | 4.03e5 | inactive |
| Lipt1 (Lipoyltransferase 1) | DRSC07183 | – | – | 8229 | 3.06e5 | inactive |
| CG14354 | DRSC14817 | – | – | 7247 | 3.06e5 | inactive |
| CG33296 | DRSC00998 | – | – | 4443 | 3.36e5 | inactive |
| CG12209 | DRSC06119 | – | – | 5548 | 3.21e5 | inactive |
| Vm26Aa (Vitelline membrane 26Aa) | DRSC03472 | – | – | 6686 | 4.03e5 | inactive |
| CG13226 | DRSC06346 | – | – | 6148 | 4.13e5 | inactive |
| CG9192 | DRSC08639 | – | – | 5439 | 3.34e5 | inactive |
